The results in this text go back to PubChem BioAssay AID2685 (National Center for Advancing Translational Sciences (NCATS), 2010).

The term AC50 denotes the concentration giving half of the maximal activity seen.

The other results are listed elsewhere or left out. These are further read-outs of the screen, such as a control signal, another cell line or another target. No call is given for them. Compounds called inactive in the main read-out are mostly missing here. The note in brackets gives the kind of curve behind each potency; many fits are weak.

A short description of this test: qHTS Assay for Lipid Storage Modulators in Drosophila S3 Cells.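 For cell number change: cells counted by Cell Tracker Red CMTPX staining in the red channel.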 Particulars: BODIPY lipid droplet fluorescence, 18-24 h; for cell number change: measured here: cell count max response, cells fed with added oleic acid. In short, it runs like this: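 Laser-scanning cytometry quantifies lipid droplet accumulation (500–530 nm total intensity; droplet/cell object ratio) in oleic acid-fed (400 uM added) Drosophila S3 cells treated with a concentration series. 20 uM Triacsin C defined 100% inhibition.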
On the technique in general: Quantitative high-throughput screening tests each substance at several concentrations.

Setting [1] is: measured here: cell number channel AC50, cells fed with added oleic acid.
The mark [2] stands for this setting: measured here: lipid fluorescence (Fed channel) AC50, cells fed with added oleic acid.

In the case of `COc1ccc(-c2nc3ccccc3c(=O)n2CCCn2ccnc2)cc1`, the cell number change is -34.8%. Moreover, the AC50 under setting [1] was 32.6 µM [falling, partial curve, poor fit].
For the compound `Cc1ccc(NC(=O)COC(=O)c2c[nH]c3ccccc23)cc1C`, the cell number change is 9.98%. For the same compound, under setting [2], the AC50 is 0.326 µM [rising, full curve, poor fit].
Regarding `O=C1c2ccccc2C(=O)C12Cc1ccccc1N1CCN(c3ccccc3)CC12` (centres undefined), the cell number change is -1.12%. Moreover, the AC50 under setting [2] is 0.326 µM [rising, full curve, poor fit].
Regarding `COc1ccc(S(=O)(=O)N2CCN(C(=O)c3cc(-c4ccc(C)cc4)n[nH]3)CC2)cc1`, the cell number change amounted to 2.31%. Besides, the AC50 under setting [2] was 20.6 µM [falling, single point].
On to `O=C(CCCOc1ccccc1)Nc1cccc(C(=O)O)c1`, for which the cell number change is -29.4%. Under setting [2], the concentration at half-maximal activity (AC50) is 0.461 µM [falling, full curve].
Consider `C=CCNC(=S)N/N=C/c1cn(C)c2ccccc12`, for which, under setting [2], the AC50 was 3.66 µM [rising, single point].
For `O=C1c2cccnc2C(O)N1Cc1ccco1` (centres undefined), the cell number change stood at 9.73%. Also, the AC50 under setting [2] is 18.4 µM [falling, partial curve].
On to `CC(=O)Nc1nonc1-c1nc2ccccc2n1Cc1ccccn1`, for which the cell number change was -0.8%. The AC50 under setting [2] is 11.6 µM [rising, partial curve, poor fit].
For `Cc1cc[n+](CC(=O)c2cc3ccccc3oc2=O)cc1`, the AC50 under setting [2] is 6.51 µM [falling, single point].
Turning to `O=C(N/N=C/c1ccc2c(c1)OCO2)C(=O)Nc1ccccc1Cl`, the cell number change was -49.9%. Further, the AC50 under setting [1] is 5.8 µM [falling, full curve].
For `CC(C)c1ccc(NC(=O)CCNS(=O)(=O)c2cccc3nsnc23)cc1`, the cell number change amounted to 33.9%. For the same compound, under setting [2], the AC50 is 5.17 µM [falling, partial curve].
Turning to `CCN1C(=O)[C@H]2[C@@H](c3ccc(-c4ccc(C(C)=O)cc4)cc3)N3CCC[C@@]3(C(=O)OC)[C@H]2C1=O`, the cell number change is -10.8%. Further, the AC50 under setting [1] is 2.91 µM [falling, single point].
With `Cc1cc(=O)oc2cc(NC(=S)NNC(=O)c3c(Cl)cnn3C)ccc12`, the cell number change stood at 33.5%. Also, the AC50 under setting [1] is 5.8 µM [rising, partial curve]. Besides, the AC50 under setting [2] is 18.4 µM [rising, single point].
For `Cc1nc2c3c(sc2c(=O)[nH]1)NC(=O)CC3c1ccccc1Cl` (centres undefined), the cell number change was found to be 3.67%. Further, the half-maximal activity concentration (AC50) under setting [1] was 0.58 µM [rising, full curve].
Consider `CCCCNC(=S)N(C)/N=C/c1c(C)[nH]c2ccccc12`, for which the cell number change was -24.7%. For the same compound, under setting [1], the AC50 was 0.058 µM [falling, full curve]. Further, under setting [2], the AC50 was 32.6 µM [falling, single point].
As to `O=S(=O)(c1cccc(-c2cn3ccccc3n2)c1)N1CCCC1`, under setting [2], the AC50 is 29.1 µM [rising, single point].
Consider `COc1ccc2oc(C(=O)OCC(=O)N3CCN(S(=O)(=O)c4ccc(C)cc4)CC3)c(C)c2c1`, for which the cell number change is 93.6%. Under setting [2], the AC50 is 29.1 µM [rising, single point].
For `O=C(O)C=C1C2CC3CC(C2)CC1C3`, the cell number change is -1.43%. For the same compound, the AC50 under setting [2] is 29.1 µM [rising, single point].
As for `COc1c(C(=O)NCCSC(C)(C)C)ccc2ccccc12`, the cell number change is -3.34%. The AC50 under setting [2] was 1.84 µM [rising, partial curve].
`COc1cnc(SCc2ccc(Cl)cc2Cl)nc1Cl`: the AC50 under setting [2] was 29.1 µM [falling, single point].
On to `O=C(NNc1ccccn1)C(=O)NNS(=O)(=O)c1ccc(F)cc1`, for which the AC50 under setting [1] is 0.651 µM [falling, single point].
Regarding `CCN(C(=O)CN1C(=O)c2ccc([N+](=O)[O-])cc2C1=O)C1CCCCC1`, the cell number change was 25.9%.
For the compound `CC(Cc1c[nH]c2ccccc12)NC(=O)C1CCCNC1=O` (centres undefined), the cell number change worked out at 15.9%.
As to `CCN(CC(=O)Nc1cc(Cl)ccc1C)C(=O)CCS(=O)(=O)c1ccc(C)cc1`, under setting [1], the AC50 is 0.0184 µM [rising, full curve, poor fit].
With `O=C(CSc1nc2ccccc2o1)Nc1nc2ccccc2s1`, the cell number change was -45.8%. Moreover, the AC50 under setting [1] was 0.326 µM [falling, full curve]. Further, the AC50 under setting [2] is 0.259 µM [falling, full curve].
As to `COc1ccc(CCc2nc(-c3cccs3)no2)cc1`, the cell number change was -14.6%. Besides, the AC50 under setting [2] was 18.4 µM [falling, single point].
In the case of `Cc1ccccc1NS(=O)(=O)c1ccc2[nH]cc(C(=O)NCCCN3CCOCC3)c(=O)c2c1`, the cell number change came to 38.5%. For the same compound, under setting [1], the AC50 was 23.1 µM [rising, single point]. Moreover, under setting [2], the AC50 is 6.51 µM [rising, single point].
In the case of `COC(=O)c1ccc(NC(=S)NCCc2ccc(OC)cc2)cc1`, the cell number change turned out to be 103%. Further, the AC50 under setting [1] is 29.1 µM [rising, partial curve].
In the case of `Cc1ccc(NC2=C(Cl)C(=O)OC2OC(=O)c2ccccc2C)cc1` (centres undefined), the cell number change was -2.91%.
Regarding `CCOc1ccc(NC(=O)COC(=O)CC2CCCCC2)cc1`, the cell number change was -6.01%. For the same compound, under setting [2], the AC50 was 7.31 µM [rising, partial curve, poor fit].
As to `CCCCc1ccc(/C=C2\C(=O)ON=C2c2ccccc2)s1`, the cell number change was -1.97%.
For the compound `COC(c1ccccc1)c1nnc(CCC(=O)N(C)Cc2cccc(-n3cccn3)c2)o1` (centres undefined), the cell number change was -18.4%. In addition, the AC50 under setting [2] is 0.0184 µM [falling, full curve, poor fit].
As for `O=C(O)c1ccc(N=Nc2c(O)ccc3ncccc23)cc1`, the cell number change was -20.7%. Also, under setting [2], the AC50 is 2.31 µM [falling, partial curve].
For the compound `COc1ccc(OC)c(CCNC(=O)c2ccc3c(c2)N(Cc2ccc(F)cc2)CCS3)c1`, the cell number change was -31.2%. For the same compound, the AC50 under setting [1] was 6.51 µM [falling, single point]. The AC50 under setting [2] is 8.2 µM [falling, partial curve].
Regarding `COc1ccc(C(C)(C)C)cc1NC(=O)c1ccc[n+]([O-])c1`, the cell number change amounted to 8.73%. The AC50 under setting [2] was 6.51 µM [rising, full curve].
As to `CCc1cc(=O)oc2cc(OCC(=O)N3CC[C@@]4(O)CCCC[C@H]4C3)ccc12`, the cell number change is -9.14%. The AC50 under setting [2] was 0.731 µM [falling, full curve].
On to `COc1cc2c(cc1OC)CC(C(=O)NCc1ccccc1)NC2` (centres undefined), for which the cell number change is 24.1%. The AC50 under setting [2] was 0.092 µM [rising, full curve, poor fit].
Consider `FC(F)(F)c1cc(CCN2CCNC[C@H]2Cc2cccc3ccccc23)cc(C(F)(F)F)c1`, for which the cell number change was -85.2%. Besides, the AC50 under setting [1] is 16.4 µM [falling, partial curve]. In addition, the AC50 under setting [2] was 20.6 µM [falling, partial curve].
`Cc1nc2ccccc2cc1C(=O)N/N=C/c1ccc([N+](=O)[O-])cc1`: the cell number change was determined as 35.9%. In addition, the AC50 under setting [1] was 14.6 µM [rising, single point]. Also, the AC50 under setting [2] was 14.6 µM [rising, single point].
As for `CCn1c(C)nnc1SCC(=O)Nc1ccc2c(c1)OCCO2`, the cell number change was -8.97%.
For `CC1CC(=O)N(C)c2cc([N+](=O)[O-])ccc2N1` (centres undefined), the cell number change was determined as 15.8%. For the same compound, the AC50 under setting [2] is 6.51 µM [falling, single point].
As to `COc1cccc(C(=O)N(Cc2nc(-c3ccc(C)cc3)no2)C(C)C)c1`, the cell number change came out at 23.2%. The AC50 under setting [2] is 18.4 µM [rising, single point].
Consider `O=C1CN(C(=O)/C=C/c2ccco2)c2ccccc2N1`, for which the AC50 was 0.0259 µM [falling, full curve, poor fit] under setting [1] and 0.0731 µM [falling, partial curve, poor fit] under setting [2].
Take `CN1CCN(/N=C/c2ccc(C#N)cc2)CC1`: the AC50 under setting [1] was 4.61 µM [rising, single point].
Consider `O=C(NC(CO)C(O)c1ccc([N+](=O)[O-])cc1)C(Cl)Cl` (centres undefined), for which the cell number change was -41.5%.
Turning to `Cc1cc(-c2ccccc2)[nH]c(=O)c1S(=O)(=O)c1ccc(Cl)cc1`, the cell number change was -14.9%. Besides, under setting [2], the AC50 is 13 µM [falling, partial curve].
Turning to `N#Cc1cc([N+](=O)[O-])ccc1NCCN1CCOCC1`, the cell number change is 133%. Further, under setting [2], the AC50 was 29.1 µM [rising, single point].
For `CCCN(CC1CC1)c1nc(N)c2c(N)nc(OC)cc2c1C#N`, the AC50 runs as follows: under setting [1], 0.231 µM [rising, full curve]; under setting [2], 0.411 µM [rising, full curve].
Turning to `Cc1sc2ncnc(OCC(=O)c3ccc(S(=O)(=O)N4CCCC4)cc3)c2c1C`, the cell number change is 9.94%. For the same compound, under setting [2], the AC50 was 20.6 µM [rising, partial curve].
For `O=C(CSc1n[nH]c(-c2ccncc2)n1)Nc1ccccc1Cl`, the cell number change was 49%. Under setting [1], the AC50 was 20.6 µM [rising, single point].
As for `COc1cc(F)ccc1S(=O)(=O)N1CCN(Cc2ccccc2)CC1`, the cell number change is -2.19%.
For the compound `c1ccc(-c2nc3nonc3c3nc4ccccc4n23)cc1`, the cell number change was -32.7%. Besides, under setting [1], the AC50 is 32.6 µM [falling, partial curve, poor fit].
For the compound `COc1ccc(-c2cc3nc(C)c(CCC(=O)NC(C)CCc4ccco4)c(C)n3n2)c(OC)c1` (centres undefined), the AC50 under setting [1] was 2.59 µM [rising, partial curve].
Regarding `CCn1nnnc1SCC(=O)Nc1nnc(C(C)C)s1`, the AC50 under setting [2] is 3.66 µM [falling, partial curve].
Consider `Cn1c(=O)n(C)c2cc(NC(=O)c3ccc(F)cc3)c(Br)cc21`, for which the cell number change is -13.8%. In addition, under setting [2], the AC50 is 6.51 µM [falling, single point].
`O=C1/C(=C/c2ccc(C(=O)O)cc2)CCC/C1=C\c1ccc(C(=O)O)cc1`: the cell number change is -51.3%. The AC50 under setting [1] was 29.1 µM [falling, single point].
Consider `O=C(COC(=O)/C=C/c1ccc([N+](=O)[O-])cc1)NC(c1ccccc1)c1ccccc1`, for which the cell number change was -9.21%. Moreover, the AC50 under setting [1] was 6.51 µM [rising, single point]. Under setting [2], the AC50 was 18.4 µM [rising, single point].
Regarding `Nc1ccc(C(=O)Nc2ccc3nc(-c4cccnc4)[nH]c3c2)cc1`, the cell number change is -32.4%. The AC50 under setting [1] was 32.6 µM [falling, single point]. For the same compound, under setting [2], the AC50 is 29.1 µM [falling, single point].
For `O=C(NCCN1CCN(Cc2ccccc2Cl)CC1)Nc1ccccc1`, the cell number change is -54.2%. Also, under setting [1], the AC50 was 29.1 µM [falling, single point]. In addition, under setting [2], the AC50 was 29.1 µM [falling, single point].
For `CC(=O)N/N=C/c1cc2c(cc1[N+](=O)[O-])OCO2`, the AC50 is 0.164 µM [rising, single point] under setting [1] and 0.116 µM [rising, single point] under setting [2].
